Test results from patent US12029748B2, “Synergistic composition for maintenance of healthy balance of microflora” (KIMBERLY-CLARK WORLDWIDE, INC., priority 2017, dated 2024).
Where a SMILES comes first, the peptide text is derived from it.

Tested on: L. crispatus and E. coli
Experiment: Therapeutic Effect Protocol: L. crispatus / E. coli co-culture, ratio after 36 hours
Type: cell-based, Lactobacillus crispatus; E. coli
Conditions: pH of test solution 36 hours after inoculation; for F pH (final pH), 0.10%: nitrogen compound 0.10 wt/vol % with 1.0 wt/vol % α methyl-D glucoside; for F pH (final pH), 0.50%: nitrogen compound 0.50 wt/vol % with 1.0 wt/vol % α methyl-D glucoside; for F pH (final pH), 1.00%: nitrogen compound 1.00 wt/vol % with 1.0 wt/vol % α methyl-D glucoside
Experimental: As used herein the term “therapeutic effect” refers to the ability of the compositions and formulations of the present invention to stimulate the growth of Lactobacillus relative E. coli measured according to the Therapeutic Effect Protocol described below. Generally, therapeutic effect is expressed as a ratio of Lactobacillus to E. coli and is desirably greater than about 2, more preferably greater than about 20 and more desirably greater than about 100.
The data in Table 1 was tested according to the Therapeutic Effect Protocol as described further herein. The nitrogen compounds were tested for their therapeutic efficacy at three different concentrations when combined with α methyl-D glucoside (1% wt/vol %). The concentrations of the nitrogen containing compounds that were tested were 1% wt/vol %, 0.5% wt/vol %, and 0.1% wt/vol %.
Colonies of L. crispatus and E. coli were prepared as follows. A colony of L. crispatus was transferred to 7 ml de Man, Rogosa & Sharpe (MRS) broth and incubated anaerobically (using BD GasPak EZ anaerobe container system with indicator) at 37° C. without shaking for 18-20 hours. A colony of E. coli was transferred to 5 ml Tryptic Soy Broth (TSB) and incubated aerobically (shaking at 100 rpm) at 37° C. for 18-20 hours.
Colonies were then inoculated as follows. Bacterial cultures were gently vortexed and 1 mL of each culture was transferred to a corresponding 2.0 mL micro-centrifuge tube and then centrifuged for two minutes at 14,500 rpm. The cultural supernatant was removed and the cell pellet was re-suspended in 1 mL of 0.95% (wt/vol %) saline. […] For L. crispatus, the pellet was re-suspended in 1 mL of 0.95% saline to achieve ˜10^7-10^8 cfu/mL. For E. coli, the pellet was re-suspended in 1 mL of 0.95% saline to achieve ˜10^8-10^9 cfu/mL.
Media were prepared as follows.
All of the ingredients in Table 2 were combined and the pH was adjusted to 6.5. […] To evaluate the effect of various nitrogen containing therapeutic agents on the growth of bacteria, the LAPT-g media, prepared as described above, was supplemented with various nitrogen containing compound therapeutic agents to a final test concentration between 0.1 and 1.0%. As initial screening measures, solubility and initial pH of each composition were checked. If a specific composition was insoluble (as detected by visual indication of precipitates or turbidity), then no further therapeutic efficacy testing was undertaken on that composition. Additionally, if the initial pH of the composition was below 5.5 (“Low”) or was above 6.5 (“High”), then no further therapeutic efficacy testing was undertaken on that composition.
Five milliliters (5 mL) of each medium was transferred to a test tube in duplicates for subsequent inoculation. A master mixture of L. crispatus and E. coli, prepared as described above, was prepared in 1,000:1 ratio. Each (5 ml) test tube was inoculated with the master mixture to give 10^5-10^6 total CFU L. crispatus and 100-1,000 total CFU E. coli per tube.
To establish a negative control, one tube was vortexed and 100 μL was removed to determine the initial cell concentrations by serial dilutions and plating (2 plates per dilution). L. crispatus is selected on MRS agar plates incubated anaerobically at 37° C. for two days. E. coli is selected on TSA plates incubated aerobically at 37° C. for one day. The co-cultures were incubated in an anaerobic container with BD GasPaks at 37° C. for 36 hours.
The effect of the α methyl-D glucoside and the nitrogen containing compound therapeutic agents on the ratio of L. crispatus to E. coli was measured 36 hours after inoculation and a final pH of the test solutions was recorded. The co-culture tube was vortexed and 100 μL was removed to determine the final cell concentrations by serial dilutions and plating (2 plates per dilution). L. crispatus is selected on MRS agar plates incubated anaerobically at 37° C. for two days.

| SMILES | F pH (final pH), 0.10% | F pH (final pH), 0.50% | F pH (final pH), 1.00% |
| --- | --- | --- | --- |
| N[C@@H](Cc1c[nH]c2ccccc12)C(=O)O [L-Tryptophan] | 4.5 | 5 |  |
| O=C1NC(=O)C(=O)C(=O)N1 [Alloxan] | 4.5 | 4 |  |
| N=C(N)NCCC[C@H](N)C(=O)O [L-Arginine] | 5 |  |  |
| N=C(N)NCCC[C@@H](N)C(=O)O [D-Arginine] | 4.5 |  |  |
| N.O.O.O.O.O=P([O-])(O)O.[Na+] [Ammonium Sodium Phosphate] | 4.5 |  |  |
| NCCCC[C@H](N)C(=O)O [L-Lysine] | 4.5 | 4.5 | 6 |
| C[C@H](NC(=O)CN)C(=O)O [Glycyl-Alanine] (H-Gly-Ala-OH) | 4 | 3.5 | 4 |
| CNCCc1ccccc1.Cl [Methyl(2-phenylethyl)amine Hydrochloride] | 4 | 5 | 5.5 |
